Series [1] is described as follows: general procedure: Fmoc solid-phase peptide synthesis; Rink Amide MBHA resin (100-200 mesh, 0.57 or […]) for C-terminal amides; pre-loaded Wang resin for C-terminal ac; HBTU/DIEA; PyAOP/DIEA for some couplings; HATU in difficult regions; Oxyma/DIC w. The conditions noted are these: whole synthesis, TFA salt; for final HPLC purity: analytical RP-HPLC; for isolated yield: overall, scale 0.13 mmol.

Series [2] is described as follows: general procedure: Fmoc solid-phase peptide synthesis; Rink Amide MBHA (100-200 mesh, […]); HBTU/DIEA; PyAOP/DIEA for some couplings; HATU in difficult regions; Oxyma/DIC w. The note with it: whole synthesis, scale 0.13 mmol, TFA salt.

Some peptides are written in HELM: one residue between dots, names in brackets for other building blocks, links after the first $. Bounds are passed on as bounds.

As to “PEPTIDE1{[XIVA].E.T.H.[XDpa].P.A.I.[dK].[XbhPhe].[XKAhx_Palm].[am]}$$$$V2.0”, the figures for the “final HPLC purity” value in series [1] (run 1) and in series [1] (run 2) were above 95% and 97%, respectively. Also, in series [1], the isolated yield came out at 12.2%. Besides, in series [2], the isolated mass worked out at 27.74 mg.

For “Isovaleric acid-Glu-Thr-His-DIP-Pro-Ala-Ile-Lys(Ahx-Palm)-bhF-NH2”, the “final HPLC purity” value in series [1] (run 1) was above 95%; in series [1] (run 2), 97%. In series [1], the isolated yield was determined as 21.5%. Also, in series [2], the isolated mass is 45.31 mg.

Source of the values: patent US20240066131A1 (Protagonist Therapeutics, Inc., priority 2020, published 2024).
